Where no end group is shown, it is not given here.

Series [1] can be described thus: general procedure: Fmoc solid-phase peptide synthesis; Fmoc-Ile-Alko Resin. The following applies: whole synthesis, scale 50 mg resin.
Series [2] can be described thus: general procedure: Fmoc solid-phase peptide synthesis; Fmoc-Leu-Alko Resin. Conditions: whole synthesis, scale 50 mg resin.

As to LYQAVATI, the isolated mass in series [1] stood at 12.4 mg. GFDCANESVL gave an isolated mass in series [2] of 15.4 mg. EYCLKFTKL: the isolated mass in series [2] turned out to be 37.5 mg.
